Measurements taken from the supplement of paper PMC3334620.
Over roughly 33,000 sequences, “E-score (-0.5 to 0.5)” has its median near -8e-05; the highest 2% begin near 0.23. This is one part of the list.

Target: T1, Nrg2 (UniProt P38082)
T1 sequence: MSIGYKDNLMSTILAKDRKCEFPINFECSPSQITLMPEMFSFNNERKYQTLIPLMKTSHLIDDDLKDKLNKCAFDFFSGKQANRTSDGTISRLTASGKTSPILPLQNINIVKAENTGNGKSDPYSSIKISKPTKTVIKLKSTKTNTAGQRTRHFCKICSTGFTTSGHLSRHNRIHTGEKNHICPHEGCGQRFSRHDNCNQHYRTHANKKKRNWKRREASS
Assay: PBM E-score (8-mer binding enrichment) (E-score (-0.5 to 0.5)); higher = stronger / more preferred TF binding
Conditions: protein concentration: 100 nM; construct: GST-full length
Procedure, shortened: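 E-scores (a modified Wilcoxon-Mann-Whitney statistic) were assigned by the Universal PBM Analysis Suite to every ungapped eight-base word pooled with its reverse complement. The input came from universal all-10-mer Agilent arrays made double-stranded by primer extension and probed with GST-tagged yeast transcription factors at about 100-200 nM. Fluorescent anti-GST detected bound protein, and masliner normalised the scans.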

Sequence	PBM E-score
GCAATACA	0.298
CAAGATGC	0.177
ATATGCTG	-0.0112
GCCCGTTA	-0.159
CCCCCATA	-0.338
GCTTCGTA	-0.102
CATCAGGC	-0.00739
ACATCGCA	-0.0272
CAAGTATC	-0.00589
ATAAAATC	0.107
ACGAGGTG	0.0679
AGTCACTA	-0.0493
TCACATAA	0.0235
ACAATGTA	0.104
GCCCGAGC	0.106
ATCGTTAC	0.0129
GAGAGTAA	0.146
ACCACGCT	-0.204
ATAGGTTG	-0.0799
CCCTGCGA	0.106
CGTCGGCA	-0.114
CGTCGCAA	0.179

Sequence	PBM E-score
CGGCGTGA	0.023
AGGGTGCA	0.256
CCTACCAA	0.0987
AACTTGAA	0.0613
CTTTCTGA	-0.0661
AAATCACC	0.137
AATCCGCT	0.00723
GTCAAAGA	-0.0048
GCACAGGA	0.00824
GGATATAC	0.059
ACAGCTCA	0.00949
TACGTAGA	-0.122
ATAGACAG	0.193
CATTCCGC	-0.0221
CTCGGTTC	-0.317
AGAGTGCT	0.105
AAGTATTC	0.0863
AACGCCTT	-0.15
ATTTGGCC	0.0466
CAGCTCAA	0.118
CGGCGTTA	-0.11
ATCATAAT	0.216

Sequence	PBM E-score
ATTGAGCC	0.167
CCTCCTAA	-0.226
CAGTTTGC	-0.00309
CATAAAGG	-0.0144
CAGTCTCC	-0.221
GATAGACC	0.0652
CACCAGGC	-0.0949
ATAAAAAC	0.121
CACCTAAG	0.0319
TATAAGGA	0.136
TAAGTAGA	0.0125
CCCTTCAG	-0.0444
ATCTCAGA	-0.0914
CACCGATA	0.0717
AGTTATGG	0.0276
ATTCACGC	-0.0865
ATGATGCC	-0.0974
AACCGGGC	-0.192
GAAGCCCA	-0.144
GATGTACC	0.0817
GACTACGA	-0.12
AGCTGTAA	-0.125

Sequence	PBM E-score
CCGGTGCA	-0.0404
TATGGTCA	-0.00136
CTCATATC	0.026
CCTTTGAG	-0.194
CCGGCAGG	-0.107
CGAAAGTA	0.00179
CTTACTTC	0.171
CTGTCCAA	0.0159
GGTCTGAC	0.0413
CCACCCTA	0.0378
GGGCGCCA	0.191
GACTCGGA	-0.226
CCATTTCG	0.106
AACATAAC	0.134
CCGATTAG	0.167
CCATTTAG	-0.105
ATCCTGGG	-0.0505
TCTTGTAA	0.111
CACCTGGA	0.00174
CTCGGTTA	-0.0602
ACGGAAGG	-0.157
CTATCAAA	0.167

Some values from the results shown:
Entry of GGGCGCCA under PBM E-score: 0.191
Entry of GACTCGGA under PBM E-score: -0.226
Entry of CGAAAGTA under PBM E-score: 0.00179
Entry of AACATAAC under PBM E-score: 0.134
Entry of CCATTTCG under PBM E-score: 0.106

More results follow.

Sequence	PBM E-score
TCAAGCCA	-0.116
CCCCGAGC	-0.128
CTCCGGGC	-0.251
AGATGCTG	-0.0346
GAAAGGTA	0.041
GCGTGCCC	-0.202
CCTAGAGA	-0.0881
CCTACGAG	-0.0653
CTAGTGTA	0.0189
AAAAACCC	-0.0196
TCGGCGCA	0.0454
GCAGCTGC	0.065
GATGCTCC	-0.171
GTTTCATA	0.111
AACTTCGG	0.181
CGCAACGA	-0.0652
ATTTCAGA	-0.0277
CAGATGCG	-0.208
TTCGGCAA	0.0192
AAACTAGG	-0.0197
CTCAAAAA	0.00893
